In article PMC3268111:
Results are given in words; binding and its absence hold for the method and conditions named.

Legend:
[1] = biological target: GST-PDZ1-2, GST fusion protein containing PDZ1-PDZ2 of hDlg (human); assay: pull-down; 40 μg GST-PDZ1-2 or 90 μg GST-α14 bound to 20 μl GSH-agarose beads, 8 μg peptide, 2 h at 4°C; washed with PBS-0.01% Triton X-100 and 50 mM Tris pH 7.6; eluted with 30% acetic acid; bound peptide detected by SELDI/MALDI-TOF on H4 ProteinChip arrays; both purified
[2] = biological target: GST-α14, GST fusion protein containing the 14th repeat of α-spectrin; assay: as above

Binder | binding [1] | binding [2]
TIGLNQPSTPTHAAGV [1CT, peptide of the last 16 residues of human MEK1] | no binding (tested: 8 μg of peptides) | –
RKTLGNRPPLVTTAQT [2RD, randomized version of the 2CT peptide sequence] | no binding (tested: 8 μg of peptides) | –
KTLRLNQPGTPTRTAV [2CT, peptide of the last 16 residues of human MEK2] | – | no binding (tested: 8 μg of peptides)
